Columns and labels:
[1] = test system: isolated rabbit sino-atrial nodes; test: Sino-atrial node beating rate in isolated rabbit right atrium
[2] = test system: isolated Langendorff perfused rabbit hearts; test: Automaticity in isolated Langendorff perfused rabbit hearts; settings: isolated rabbit heart

Q: Which results are given for `COc1ccc(CC(C)NCC(O)c2ccc(O)c(NC=O)c2)cc1` (centres unmarked) [Formoterol, reference compound]?
A: Sino-Atrial node beating rate, maximum increase (n = 6) [1]: +45%; Automaticity, maximum increase (n = 3) [2]: +46%
